Among the data in publication PMC7819943, “Rice protein-binding microarrays: a tool to detect cis-acting elements near promoter regions in rice” are binding signal values, retold here.

Protein sequences, listed by entry. Tags and fused reporters are not part of them.
UniProt Q0JBA9, entry or part of it: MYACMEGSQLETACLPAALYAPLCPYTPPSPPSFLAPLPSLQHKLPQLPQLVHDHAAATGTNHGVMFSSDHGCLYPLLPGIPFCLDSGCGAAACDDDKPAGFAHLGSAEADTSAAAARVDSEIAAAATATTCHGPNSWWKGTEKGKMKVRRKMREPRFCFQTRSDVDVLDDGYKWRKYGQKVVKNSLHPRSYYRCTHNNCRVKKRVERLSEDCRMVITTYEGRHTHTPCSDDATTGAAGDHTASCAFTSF

Some of the results follow.

For this assay, the target named is OsWRKY34 (Oryza sativa, UniProt Q0JBA9 1-250). The assay can be described thus: protein-binding microarray (RPBM); PBS, 2% BSA, 51.3 ng/ul salmon testes DNA, 50 uM zinc acetate, 200 nM TF, 25 C, 1 h; high values mean tight binding. Conditions: protein: recombinant; tags: N-terminal polyhistidine and DsRed monomer fusion (pET32a); label: CyDye5-dUTP incorporated in the synthesized complementary strand; 3' TTTTT single-stranded linker to array surface; dsDNA, one strand shown. Summed up: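 In PBS with 2% BSA, salmon testes DNA and 50 µM zinc acetate, 200 nM protein was incubated on a custom Agilent array at 25 °C for 1 h and then washed off. The array had been made double-stranded by primer extension with Cy5-dUTP and blocked with 2% BSA. The proteins were transcription factors fused N-terminally to polyhistidine and DsRed, expressed in E. coli BL21-CodonPlus and purified on Ni–NTA. The binding signal is per-feature fluorescence intensity (arbitrary units) from an Axon 4000B scanner.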
For the sequence “GATCGATCGATCCCCACTTTTCCCATCCACCAATCCAAACCGGAGTCACCTAGTGCAG”, the binding signal was 8240 fluorescence intensity (a.u.).
In the case of “ACGACCGTCCACGCCTCGCGCCACCTCTCGTCCGCCAAACCGGAGTCACCTAGTGCAG” it was 11800 fluorescence intensity (a.u.); in that of “TAGTTAAAGCCACGTTCTTAATTTCTCCTTTTGCTTTTGGCGGAGTCACCTAGTGCAG”, 9170 fluorescence intensity (a.u.).
For the sequence “GCTGACTTCATCTTCATTTTAATATATCTCAAACACCACGCGGAGTCACCTAGTGCAG”, the binding signal was 10200 fluorescence intensity (a.u.).
“ACCCGCGCCACCGCCGCTGCTTTCCCCTATGCGTTGATAGCGGAGTCACCTAGTGCAG”: the binding signal was 8090 fluorescence intensity (a.u.).
In the case of “TCGCTCACACTCTTCCTTCCACTCTCCCAATACTCACTCACGGAGTCACCTAGTGCAG”, the binding signal was 8370 fluorescence intensity (a.u.).
“GCGCGCGCGGGTGTTCTCTTCGTGGCGAGATCGGCGTTGACGGAGTCACCTAGTGCAG”: the binding signal is 8110 fluorescence intensity (a.u.).
Regarding “TTTTTTCCCTTATCATATCAAGCAGCAAGCTCTTTTACCGCGGAGTCACCTAGTGCAG”, the binding signal was 8020 fluorescence intensity (a.u.).
As for “GGAGATGACCCCTTGTTGTTTGTATGATACTTAAATTGTTCGGAGTCACCTAGTGCAG”, the binding signal is 11200 fluorescence intensity (a.u.).
The result for “CAAATTTGGATTCGTTTTGTTCGTTTCCAGCTCACCCTGTCGGAGTCACCTAGTGCAG” reads 9480 fluorescence intensity (a.u.).
With “TTTTCCGAGAAAGTTCTTTTGGATACTCCCTCCGTCTCATCGGAGTCACCTAGTGCAG”, the binding signal was 8430 fluorescence intensity (a.u.).
As to “ACCACACCCTCTCCCTGATTTGGCCAATAGTGTACCGGCGCGGAGTCACCTAGTGCAG”, the binding signal is 8650 fluorescence intensity (a.u.).
In the case of “GGTCTATTAGCGCGTTATTAATTATGTATTTGCTATTTTTCGGAGTCACCTAGTGCAG” it was 13200 fluorescence intensity (a.u.).
Turning to “TTAGTGATCGATACTGGTCGCATTGTTATCTTGTACTCTACGGAGTCACCTAGTGCAG”, the binding signal is 8180 fluorescence intensity (a.u.).
In the case of “CAAGGCTTTTTTCCGGCTTTACATTCTCTGCAACATTAATCGGAGTCACCTAGTGCAG” it was 8330 fluorescence intensity (a.u.); in that of “CATAGCCTCATTCTGCCTTGTTCAGTCATGCCTCGCAATGCGGAGTCACCTAGTGCAG”, 10100 fluorescence intensity (a.u.).
With “CGGTAGGGCGAGCACGGGTGGGGTTGGTGGTGATTTTTTTCGGAGTCACCTAGTGCAG”, the binding signal was 20800 fluorescence intensity (a.u.).
Consider “GTGTCCATCAATCCATCCATCCATGCTTATTTTCTCAAGACGGAGTCACCTAGTGCAG”, for which the binding signal was 8580 fluorescence intensity (a.u.).
The result for “TTTCGTTGTCCCTCGTCATTGCTAGACCCAACCGCCGCCACGGAGTCACCTAGTGCAG” reads 8350 fluorescence intensity (a.u.); that for “TCACCGCGTACGTCACATTTACAGCTTTTGGTCGTCTATACGGAGTCACCTAGTGCAG”, 10200 fluorescence intensity (a.u.); that for “GTCGTCGCCTGCCTCTTCGTCGCCGCTCTCGTCTCCGCTCCGGAGTCACCTAGTGCAG”, 9880 fluorescence intensity (a.u.).
Turning to “CCCTTAGCTTCTTTGTGTGGATAGATATATGACCGTTTTACGGAGTCACCTAGTGCAG”, the binding signal was 11100 fluorescence intensity (a.u.).
On to “TTAAGTTGAAATTTTTTCCGTTGGTTTTTCATATAGTATTCGGAGTCACCTAGTGCAG”, for which the binding signal is 8810 fluorescence intensity (a.u.).
With “CAAGACATACACACTCTTACTTTCTCTCTCGTCCTACTAACGGAGTCACCTAGTGCAG”, the binding signal is 8380 fluorescence intensity (a.u.).
With “ATCACGATCACAACCAAAATTTGTTGTTTTCTTCACGATTCGGAGTCACCTAGTGCAG”, the binding signal was 10900 fluorescence intensity (a.u.).
Turning to “TCTACTCTCTCTCTCTCTCTTTTCCTTTTCATAACTGTCTCGGAGTCACCTAGTGCAG”, the binding signal is 9070 fluorescence intensity (a.u.).
As to “GCCGTCGACCCGTCGTCGTACTCCCGCCCACCCAGCGCCGCGGAGTCACCTAGTGCAG”, the binding signal was 8100 fluorescence intensity (a.u.).
The result for “AGCACACAACACATATGTATACTTCCTCTCTGCTTTCTCCCGGAGTCACCTAGTGCAG” reads 8900 fluorescence intensity (a.u.); that for “ACATTTCCCATTTCCTTCGTGCAATCCAGATGTGCCTCCACGGAGTCACCTAGTGCAG”, 11200 fluorescence intensity (a.u.); that for “AGTGAAGGGTCTTTTTTTTATGTATTGATATGTGTGGGATCGGAGTCACCTAGTGCAG”, 12200 fluorescence intensity (a.u.).
Regarding “TTTCATTCCAACTCTTTTTTTTCCTGTGTTACTTGTATTTCGGAGTCACCTAGTGCAG”, the binding signal is 9620 fluorescence intensity (a.u.).
For the sequence “CCCGTTTTGTTTTTTTTTAAAATTTAATGCCACGTAAGCGCGGAGTCACCTAGTGCAG”, the binding signal is 9900 fluorescence intensity (a.u.).
Turning to “AAGTCATTCTTGCTTATCAATGCACCTCACATAAGGCACTCGGAGTCACCTAGTGCAG”, the binding signal is 8030 fluorescence intensity (a.u.).
As to “AGAATACACTCTCCAGTAACCTCGTCACATTCAGTTCGAACGGAGTCACCTAGTGCAG”, the binding signal is 8160 fluorescence intensity (a.u.).
In the case of “CTCGCGTTTTATCCGTTTCGAACTGCTCGTGTCGCGCCGCCGGAGTCACCTAGTGCAG” it was 8920 fluorescence intensity (a.u.); in that of “GCGTACTAAAAAGTCAACGGTGTCAACCATTTTAAAATGGCGGAGTCACCTAGTGCAG”, 12500 fluorescence intensity (a.u.); in that of “GGGTTTGGGGTTGCGATTGGGATTGGTAGGGAGGCTGATGCGGAGTCACCTAGTGCAG”, 8280 fluorescence intensity (a.u.).
On to “CAGCTATCGTTATTCTGAAGATCCACCAAGCACAATCTTACGGAGTCACCTAGTGCAG”, for which the binding signal is 8280 fluorescence intensity (a.u.).
In the case of “GTGCCCGTGATGCTATTGTTTCATATCTGTTTCCCAATAGCGGAGTCACCTAGTGCAG” it was 9850 fluorescence intensity (a.u.).
Turning to “TTGCCAGCTTGTCTCTCTGATTTTATTATCCTTTTCTTTTCGGAGTCACCTAGTGCAG”, the binding signal was 14200 fluorescence intensity (a.u.).
For the sequence “GCTCCTGTGGATGTAACGCCGCAGCTCTCTTGTGTACCACCGGAGTCACCTAGTGCAG”, the binding signal is 9120 fluorescence intensity (a.u.).
On to “TGCAGGGGAAGAGGCAAGGAGGGCAAGACCGGGGCGCAGTCGGAGTCACCTAGTGCAG”, for which the binding signal was 8490 fluorescence intensity (a.u.).
